{"source": "paper PMC7324386", "binders": {"B1": {"name": "PUX4 (protein, UniProt Q8RWU7 1-303)", "chain": "MSSKDKKPSKPSSSRGGIRTLSDLNRRSGPDSDSDSDGPQEYYTGGEKSGMLVQDPSKKDDVDEIFNQARQLGAVEGPLEPPPSSRSFTGTGRLLSGENVPTGNQQPEPVVHNIVFWSNGFTIDDGPLRKLDDPENASFLESIRKSECPKELEPADRRAPVHVNLMRKEEKCPERQKRRVSFQGVGRTLGGSNEGSGSSSPVAPDSAPIPIQTEPAPSQSLVIDETVPTTSIQLRLADGTRLVAKFNHHHTVNDIRGFIDSSRPGASLNYQLQTMGFPPKPLTDLTQTIEEAGLANSVVLQKF"}, "B2": {"name": "PUX5 (protein, UniProt Q7Y175 1-421)", "chain": "MATETNENLINSFIEITSSSREEANFFLESHTWNLDAAVSTFLDNDAAAAAEPNPTGPPPPSSTIAGAQSPSQSHSPDYTPSETSPSPSRSRSASPSSRAAPYGLRSRGGAGENKETENPSGIRSSRSRQHAGNIRTFADLNRSPADGEGSDSDEANEYYTGGQKSGMMVQDPKKVKDVDELFDQARQSAVDRPVEPSRSASTSFTGAARLLSGEAVSSSPQQQQQEQPQRIMHTITFWLNGFTVNDGPLRGFSDPENAAFMNSISRSECPSELEPADKKIPVHVDLVRRGENFTEPPKPKNPFQGVGRTLGASGSGSSSAPQASSAPMNVAPAPSRGLVVDPAAPTTSIQLRLADGTRLVSRFNNHHTVRDVRGFIDASRPGGSKEYQLLTMGFPPKQLTELDQTIEQAGIANAVVIQKF"}, "B3": {"name": "UFD1B (protein, UniProt Q9SJV0 1-340)", "chain": "MVLRFCCHLLTYSVSLLPPITMFFDGYHYHGTTFEQSYRCYPASFIDKPQLESGDKIIMPPSALDRLASLHIDYPMLFELRNAGIERVTHCGVLEFIAEEGMIYMPYWMMQNLLLQEGDIVRVRNVTLPKGTYVKLQPHTTDFLDISNPKAILETALRNYSCLTSGDSIMVPYNNKKYFIDIVETKPANAISIIETDCEVDFAPPLDYKEPERPTAPSAAKGPAKAEEVVDEPEPKFNPFTGSGRRLDGRPLAYEPAPASSSKGKQPVVANGNGQSSVASSSEKATRAQGKLVFGANGNRAPKEAAPKVGAAKETKKEEQEKKDEPKFQAFSGKKYSLRG"}, "B4": {"name": "UFD1C (protein, UniProt Q8W570 1-311)", "chain": "MFYDGYAYHGTTFEQTYRCYPSSFIDKPQIESGDKIIMPPSALDRLASLQIDYPMLFELRNASTDSFSHCGVLEFIAEEGVIYIPYWMMQNLLLQEGDMVRVRNVTLPKGTYVKLQPHTTDFLDIANPKAILETALRNYSCLTVGDSIMVPYNNKKYFIDIVEAKPSNGISIIETDCEVDFAPPLDYKEPERPVAPAPAKAKEVDVAEAEPKFNPFTGSGRRLDGRPLSYEPQPGAANSNGQSHPVASSSSSGSEKATQQNRGKLVFGSNVERSTKETTKVGAGKDRKQEEEAEKEAKFQAFSGKKYSLRG"}}, "note": "Results are given in words; binding and its absence hold for the method and conditions named. Binding seen in cells or lysates may run through a third protein. A yes stands for co-enrichment or nearness to the bait. Other partners may have been found. For some assays here: A no says only that the protein was not detected with the bait. For some assays here: Tags and fused reporters may be left off the sequences shown."}
{"biological_target": "HA-BioID2-NEMP_A (Arabidopsis thaliana) (UniProt Q9SHQ6)", "assay": "proximity labelling; BioID2-tagged bait in 10-day-old transgenic Arabidopsis seedlings, 50 µM biotin for 16 h at room temperature, streptavidin-coated beads, label-free quantitative MS, ratiometric analysis against controls; the SUN1 bait also with MG132 treatment"}
{"binder": "B1", "binding": "binds"}
{"binder": "B2", "binding": "binds"}
{"biological_target": "T1, BioID2-WIP1 (Arabidopsis thaliana) (UniProt Q8GXA4)", "T1 sequence": "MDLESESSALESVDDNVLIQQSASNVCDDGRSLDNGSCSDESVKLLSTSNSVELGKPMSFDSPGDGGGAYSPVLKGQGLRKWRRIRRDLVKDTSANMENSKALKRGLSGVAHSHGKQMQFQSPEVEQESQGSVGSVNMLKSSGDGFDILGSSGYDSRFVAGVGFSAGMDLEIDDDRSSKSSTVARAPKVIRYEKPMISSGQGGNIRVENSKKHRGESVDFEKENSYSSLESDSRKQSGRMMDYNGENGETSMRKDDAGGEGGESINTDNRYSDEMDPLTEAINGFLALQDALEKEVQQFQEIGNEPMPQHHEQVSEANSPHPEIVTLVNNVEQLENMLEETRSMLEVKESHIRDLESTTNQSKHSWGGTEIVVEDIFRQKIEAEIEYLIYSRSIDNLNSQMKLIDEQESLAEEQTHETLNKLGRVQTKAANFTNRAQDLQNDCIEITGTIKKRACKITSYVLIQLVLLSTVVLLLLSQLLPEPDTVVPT", "assay": "proximity labelling; BioID2-tagged bait in 10-day-old transgenic Arabidopsis seedlings, 50 µM biotin for 16 h at room temperature, streptavidin-coated beads, label-free quantitative MS, ratiometric analysis against controls; the SUN1 bait also with MG132 treatment"}
{"binder": "B3", "binding": "no binding"}
{"binder": "B4", "binding": "no binding"}
{"binder": "B1", "binding": "no binding"}
{"binder": "B2", "binding": "no binding"}
{"biological_target": "T2, PUX5-BioID2-HA (Arabidopsis thaliana) (UniProt Q7Y175)", "T2 sequence": "B2 chain", "assay": "proximity labelling; BioID2-tagged bait in 10-day-old transgenic Arabidopsis seedlings, 50 µM biotin for 16 h at room temperature, streptavidin-coated beads, label-free quantitative MS, ratiometric analysis against controls; the SUN1 bait also with MG132 treatment"}
{"binder": "B3", "binding": "binds"}
{"binder": "B4", "binding": "binds"}
{"binder": "B1", "binding": "binds"}
{"biological_target": "T3, HA-BioID2-SUN1 (Arabidopsis thaliana) (UniProt Q9FF75)", "T3 sequence": "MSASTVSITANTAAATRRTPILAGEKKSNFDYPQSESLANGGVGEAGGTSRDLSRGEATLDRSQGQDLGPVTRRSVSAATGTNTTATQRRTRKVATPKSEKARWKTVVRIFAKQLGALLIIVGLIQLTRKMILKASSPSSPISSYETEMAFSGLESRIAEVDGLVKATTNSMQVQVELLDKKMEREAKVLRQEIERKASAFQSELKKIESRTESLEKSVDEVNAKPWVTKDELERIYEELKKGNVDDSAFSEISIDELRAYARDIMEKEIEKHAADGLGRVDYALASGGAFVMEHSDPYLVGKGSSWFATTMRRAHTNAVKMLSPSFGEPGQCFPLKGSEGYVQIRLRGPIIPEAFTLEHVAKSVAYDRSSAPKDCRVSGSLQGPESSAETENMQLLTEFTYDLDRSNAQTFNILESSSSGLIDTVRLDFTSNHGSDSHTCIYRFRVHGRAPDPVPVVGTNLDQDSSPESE", "assay": "proximity labelling; BioID2-tagged bait in 10-day-old transgenic Arabidopsis seedlings, 50 µM biotin for 16 h at room temperature, streptavidin-coated beads, label-free quantitative MS, ratiometric analysis against controls; the SUN1 bait also with MG132 treatment"}
{"binder": "B3", "binding": "binds"}
{"binder": "B4", "binding": "binds"}
{"binder": "B1", "binding": "binds"}
{"binder": "B2", "binding": "binds"}
{"biological_target": "Nup82-BioID2 (Arabidopsis thaliana)", "assay": "proximity labelling; BioID2-tagged bait in 10-day-old transgenic Arabidopsis seedlings, 50 µM biotin for 16 h at room temperature, streptavidin-coated beads, label-free quantitative MS, ratiometric analysis against controls; the SUN1 bait also with MG132 treatment"}
{"binder": "B3", "binding": "no binding"}
{"binder": "B4", "binding": "no binding"}
{"binder": "B1", "binding": "no binding"}
{"binder": "B2", "binding": "no binding"}
